According to PubChem BioAssay AID2685 (National Center for Advancing Translational Sciences (NCATS), 2010):
The list shows a part of the results. The main result of the screen is listed elsewhere. These columns were measured beside it and carry no call. The list favours compounds with an active or inconclusive main result. Words in brackets tell the shape of the fitted curve; partial curves, single points and poor fits give uncertain potencies.

Assay: qHTS Assay for Lipid Storage Modulators in Drosophila S3 Cells;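 on cell number change: cells counted by Cell Tracker Red CMTPX staining in the red channel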
Settings: BODIPY lipid droplet fluorescence, 18-24 h; for cell number change: measured here: cell count max response, cells fed with added oleic acid
In short: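 Drosophila S3 cells loaded with oleic acid (400 uM, as added) and compounds at several concentrations; lipid droplets imaged by 488-nm laser-scanning cytometry, 500–530 nm intensity and object ratio to cell channel. Percent activity normalized to 20 uM Triacsin C.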

[1] = measured here: lipid fluorescence (Fed channel) AC50, cells fed with added oleic acid
[2] = measured here: cell number channel AC50, cells fed with added oleic acid

| SMILES | AC50 [1] | cell number change [%] | AC50 [2] |
| --- | --- | --- | --- |
| COc1ccc(NC(=O)c2cn(C)c(=O)c3cc(OC)c(OC)cc23)c(OC)c1 | 0.13 µM [rising, full curve, poor fit] | – | – |
| Cc1cccc(Nc2nc(N)nc(CN3CCN(Cc4ccc5c(c4)OCO5)CC3)n2)c1 | 5.8 µM [rising, partial curve, poor fit] | -16.7 | – |
| CCc1ccc(-c2cc(C)no2)cc1S(=O)(=O)Nc1cc(C)on1 | – | 26.9 | – |
| O=C(COC(=O)C1CC2C=CC1C2)Nc1ccccc1 (centres undefined) | 6.51 µM [rising, partial curve, poor fit] | 1.71 | – |
| CC(=O)Nc1ccc(C(=O)OCC(=O)N2CCC(Cc3ccccc3)CC2)cc1 | 29.1 µM [falling, single point] | – | – |
| CC1CC(C)CN(C(=O)COC(=O)c2ccc([N+](=O)[O-])o2)C1 (centres undefined) | 0.0411 µM [rising, full curve, poor fit] | 17 | – |
| COc1ccc(Nc2nc(N)c(C(=O)c3ccc(OC)cc3)s2)cc1 | – | 16.2 | – |
| CC1Cc2ccccc2N1C(=O)C1CCN(S(=O)(=O)Cc2ccccc2)CC1 (centres undefined) | – | -7.05 | – |
| CC(C)[C@H](NC(=O)c1ccccc1Cl)C(=O)OCC(=O)NC(=O)NC1CCCC1 | – | -30.5 | 0.00461 µM [falling, full curve, poor fit] |
| Cc1ccc2cccc(OCC(=O)NCc3ccco3)c2n1 | 11.6 µM [falling, single point] | -30 | – |
| CNC(=S)N(C)[C@H]1c2c(ccc3ccccc23)OC[C@H]1CO | 0.146 µM [falling, full curve, poor fit] | – | – |
| COc1cccc(NC(=O)c2nnn(CCc3ccccc3)c2N)c1 | 13 µM [rising, single point] | -1.46 | – |
| COc1ccc(CN(C)C(=O)CCN(c2ccccc2)S(=O)(=O)c2ccc(C)cc2)c(OC)c1 | – | -18.1 | – |
| CCSc1nnc(N2C(=O)C(O)=C(C(=O)c3ccco3)C2c2cccc(OC)c2)s1 (centres undefined) | – | -3.54 | – |
| CC(=O)Nc1ccc(NC(=O)c2cc(=O)c3cc(C)cc(C)c3o2)cc1 | 5.17 µM [rising, partial curve] | – | 0.184 µM [rising, partial curve] |
| CCC(NC(=O)CCC(=O)N1CCN(S(=O)(=O)c2ccc(C)cc2)CC1)c1ccc(C)cc1 (centres undefined) | 29.1 µM [falling, single point] | -2.63 | – |
| C/C(=N\O)C(C)(C)Nc1ccc(Cl)cc1 | – | 18.1 | – |
| CCCNC(=O)c1ccccc1NC(=O)CN(c1ccccc1OCC)S(C)(=O)=O | 8.2 µM [rising, partial curve] | 1.56 | – |
| COc1ccc(C2CC2/C(=N/OC(=O)c2cccs2)c2ccccc2)cc1 (centres undefined) | 6.51 µM [falling, single point] | 41.1 | 9.2 µM [rising, partial curve] |
| N#CC1=C2N=C(N)c3c(sc4c3CCCCC4)N2C2=C(C(=O)CCC2)C1c1ccccc1 (centres undefined) | 18.4 µM [falling, single point] | -37.4 | 23.1 µM [falling, single point] |

| SMILES | AC50 [1] | cell number change [%] | AC50 [2] |
| --- | --- | --- | --- |
| COc1ccc(C(=O)c2cnc3cc4c(cc3c2C)OCO4)cc1 | 5.8 µM [rising, single point] | 68.4 | 29.1 µM [rising, single point] |
| COc1ccccc1OCCNC(=O)C1CCCCC1 | – | – | 0.146 µM [falling, full curve, poor fit] |
| Cc1ccc(NCc2nnc(SCc3ccc(C#N)cc3)n2Cc2ccco2)c(C)c1 | 4.61 µM [rising, full curve] | 7.96 | – |
| COc1ccc(OC)c(C2N(c3ccc(Cl)cc3)C(=O)C3CCCN32)c1 (centres undefined) | 0.116 µM [falling, full curve] | -19 | 7.31 µM [falling, single point] |
| O=c1c2cnn(-c3ccccc3)c2ncn1CCc1ccccc1 | 29.1 µM [rising, single point] | 44.6 | 11.6 µM [rising, partial curve, poor fit] |
| O=C(O)c1ccc2c(c1)C(=O)N(N1C(=O)c3ccccc3C1=O)C2=O | 6.51 µM [falling, single point] | 14.1 | 6.51 µM [falling, single point] |
| O=P(O)(CCc1ccccn1)CN1CCCCC1 | 6.51 µM [falling, single point] | -0.759 | – |
| O=C(CN1CCCCC1)Nc1cc(S(=O)(=O)N2CCOCC2)ccc1N1CCCC1 | 0.00411 µM [rising, full curve, poor fit] | -3.35 | – |
| O=C(CSc1nnc(SCc2ccc(Cl)cc2)s1)N/N=C/c1ccccc1Cl | 29.1 µM [falling, single point] | -5.63 | – |
| Nc1ccc(C(=O)Nc2ccc(Nc3ccncc3)cc2)cc1 | 2.31 µM [rising, full curve, poor fit] | 31.3 | 32.6 µM [rising, single point] |
| Cc1ccc(-c2nc(N)sc2-c2ccc(C)cc2)cc1 | – | -50.1 | 29.1 µM [falling, partial curve] |
| O=C(Cc1cccc2ccccc12)NNC(=O)c1cccs1 | 16.4 µM [falling, single point] | -28.5 | – |
| Cc1cccc(NC(=O)C2CCN(C(=O)c3ccccc3C)CC2)n1 | – | 4.54 | – |
| CC(=O)c1c(C)[nH]c(C(=O)CSc2nnc(C3CCCCC3)n2N)c1C | 0.146 µM [rising, full curve, poor fit] | 4.37 | – |
| O=C(c1scc2c1CCCC2)N1CCCCC1 | 0.13 µM [falling, full curve, poor fit] | -12.6 | – |
| Cc1c([N+](=O)[O-])cc(C(=O)Oc2cccc(C(=S)N3CCOCC3)c2)cc1[N+](=O)[O-] | – | -34.7 | 29.1 µM [falling, single point] |
| O=C(CCCN=C1NS(=O)(=O)c2ccccc21)OCC(=O)c1ccccc1Cl | – | -4.42 | 0.164 µM [falling, full curve, poor fit] |
| O=C(Cn1cc(C(=O)c2cccs2)c2ccccc21)NCC1CCCO1 (centres undefined) | 4.61 µM [falling, full curve] | -11.4 | – |
| O=C1OC(NC(=O)c2ccccc2)C(N2CCOCC2)=C1Cl (centres undefined) | 10.3 µM [falling, partial curve] | 40.2 | 5.8 µM [falling, single point] |
| CCOc1ccccc1NC(=O)NCc1cccnc1 | – | -25.5 | – |

| SMILES | AC50 [1] | cell number change [%] | AC50 [2] |
| --- | --- | --- | --- |
| C=CCNc1nc(-c2sc(NC(C)=O)nc2C)cs1 | 3.66 µM [rising, partial curve, poor fit] | 22.2 | 0.0651 µM [rising, full curve, poor fit] |
| CCC(CC)C(=O)N1CC(=O)Nc2ccc(C)cc2C1c1ccccc1 (centres undefined) | – | 20.7 | 2.59 µM [rising, full curve, poor fit] |
| Cc1ccc(CS(=O)(=O)CCC(=O)N2CCOCC2)cc1 | 16.4 µM [rising, single point] | -3.84 | – |
| COC1=C(OC)C(=O)C(CCCCCCCCCCO)=C(C)C1=O | 13 µM [falling, partial curve, poor fit] | – | – |
| Cc1sc2nc(CN3CCOCC3)[nH]c(=S)c2c1C | – | 45.8 | 5.8 µM [rising, full curve] |
| Cc1ccccc1OCC(=O)NN1C(=O)C2C3C=CC(O3)C2C1=O (centres undefined) | 0.316 µM [rising, single point] | 0.385 | 1 µM [rising, partial curve] |
| C/C(=N\OCC(=O)NC(C)C)c1cccs1 | 3.26 µM [rising, single point] | 6.46 | 0.461 µM [rising, single point] |
| Cc1cc(Nc2cccc([N+](=O)[O-])c2)c2cccc(C)c2n1 | – | 11.7 | – |
| C(#Cc1ccc(C#CCN2CCCC2)cc1)CN1CCCC1 | – | – | 6.51 µM [falling, single point] |
| COc1cc(C#CC#CCN2CCCCC2)ccc1O | 20.6 µM [falling, single point] | -43.4 | 23.1 µM [falling, single point] |
| C1CCCN(CCCCN2CCCCCC2)CC1 | 5.17 µM [falling, full curve] | – | – |
| Cn1cccc1CNC(=O)Nc1ccccc1 | 0.13 µM [falling, full curve, poor fit] | -29.4 | – |
| CC(=O)c1ccc(OCc2cc(C(=O)N3CCC(Oc4ccccc4C)CC3)no2)cc1 | 20 µM [rising, partial curve, poor fit] | 40.7 | 35.5 µM [rising, single point] |
| CCc1cc2cc3c(cc2nc1SCC(=O)Nc1cc(OC)c(OC)cc1C(=O)O)OCO3 | – | 29.9 | – |
| COc1ccc(S(=O)(=O)N2CCCCC2)cc1N(C)S(=O)(=O)c1ccccc1 | 29.1 µM [falling, single point] | -27.2 | – |
| CC(c1nc2ccccc2c(=O)[nH]1)N(C)c1ccc2ccccc2c1 (centres undefined) | 18.4 µM [rising, single point] | -1.16 | – |
| CC(C)(C)c1ccc(/C=N/NC(=S)NC2CCCCC2)cc1 | 29.1 µM [falling, single point] | -6.92 | – |
| CCOC(=O)N1CCN(C(=O)c2cc3c(=O)n4cccc(C)c4nc3s2)CC1 | – | 7.26 | – |
| CC(C)n1c(/C=C/[C@@H](O)C[C@@H](O)CC(=O)O)c(-c2ccc(F)cc2)c2ccccc21 | – | 17.6 | – |
| Cc1ccc(S(=O)(=O)CCc2nnc(NC(=O)c3cnccn3)s2)cc1 | 2.06 µM [rising, partial curve] | – | 2.31 µM [rising, single point] |

Pulled one by one from the entries so far:

| SMILES | AC50 [1] | cell number change [%] | AC50 [2] |
| --- | --- | --- | --- |
| COc1ccccc1OCCNC(=O)C1CCCCC1 | – | – | 0.146 µM [falling, full curve, poor fit] |
| COc1ccc(C(=O)c2cnc3cc4c(cc3c2C)OCO4)cc1 | 5.8 µM [rising, single point] | 68.4 | 29.1 µM [rising, single point] |
| COc1cccc(NC(=O)c2nnn(CCc3ccccc3)c2N)c1 | 13 µM [rising, single point] | -1.46 | – |
| O=c1c2cnn(-c3ccccc3)c2ncn1CCc1ccccc1 | 29.1 µM [rising, single point] | 44.6 | 11.6 µM [rising, partial curve, poor fit] |
